Patent US8293489B2, “Methods for detection of biological substances” (priority 2007, dated 2012)

Experiments:
PlGF = PlGF in plasma, nasal mucus, saliva and urine; set-up: species or system human
CNTF = CNTF in plasma, urine, saliva and nasal mucus; set-up: species or system human

B1: … LIKE GROWTH FACTOR (PlGF) (protein, UniProt P49763 19-221, looked up)
Placenta growth factor: LPAVPPQQWALSAGNGSSEVEVVPFQEVWGRSYCRALERLVDVVSEYPSEVEHMFSPSCVSLLRCTGCCGDENLHCVPVETANVTMQLLKIRSGDRPSYVELTFSQHVRCECRHSPGRQSPDMPGDFRADAPSFLPPRRSLPMLFRMEWGCALTGSQSAVWPSSPVPEEIPRMHPGRNGKKQQRKPLREKMKPERCGDAVPRR
- BLOOD CONCENTRATION (PlGF; blood, mean ± spread): 21 ± 4 pg/mL
- BLOOD CONCENTRATION (range) (PlGF; blood, range in parentheses): (0-79) pg/ml
- NASAL MUCUS CONCENTRATION (PlGF; nasal mucus, mean ± spread): 372 ± 17 pg/mL
- NASAL MUCUS CONCENTRATION (range) (PlGF; nasal mucus, range in parentheses): (32-1402) pg/ml

B2: CNTF (protein, UniProt P26441 1-200, looked up)
Ciliary neurotrophic factor: MAFTEHSPLTPHRRDLCSRSIWLARKIRSDLTALTESYVKHQGLNKNINLDSADGMPVASTDQWSELTEAERLQENLQAYRTFHVLLARLLEDQQVHFTPTEGDFHQAIHTLLLQVAAFAYQIEELMILLEYKIPRNEADGMPINVGDGGLFEKKLWGLKVLQELSQWTVRSIHDLRFISSHQTGIPARGSHYIANNKKM
- CNTF (CNTF; NASAL MUCUS): 0.003 ± 0.001 µg/mL
- CNTF (CNTF; PLASMA, (19) subjects): 0.004 ± 0.001 µg/mL
- CNTF (CNTF; SALIVA): 0.001 ± 0.001 µg/mL
- CNTF (CNTF; URINE): 0 µg/mL
